Measured values published in patent US20220033512A1 (University of California, published 2022).
Results are given in words; binding and its absence hold for the method and conditions named. Some entries that bind do so weakly or less than the wild type.

Experiments:
[1] = molecular target: T1, human ENPP1, full length, over-expressed on HEK cells (human) (UniProt P22413); assay: clone comparison; FIG. 15 flow cytometry on HEK cells over-expressing ENPP1
T1 sequence (looked up): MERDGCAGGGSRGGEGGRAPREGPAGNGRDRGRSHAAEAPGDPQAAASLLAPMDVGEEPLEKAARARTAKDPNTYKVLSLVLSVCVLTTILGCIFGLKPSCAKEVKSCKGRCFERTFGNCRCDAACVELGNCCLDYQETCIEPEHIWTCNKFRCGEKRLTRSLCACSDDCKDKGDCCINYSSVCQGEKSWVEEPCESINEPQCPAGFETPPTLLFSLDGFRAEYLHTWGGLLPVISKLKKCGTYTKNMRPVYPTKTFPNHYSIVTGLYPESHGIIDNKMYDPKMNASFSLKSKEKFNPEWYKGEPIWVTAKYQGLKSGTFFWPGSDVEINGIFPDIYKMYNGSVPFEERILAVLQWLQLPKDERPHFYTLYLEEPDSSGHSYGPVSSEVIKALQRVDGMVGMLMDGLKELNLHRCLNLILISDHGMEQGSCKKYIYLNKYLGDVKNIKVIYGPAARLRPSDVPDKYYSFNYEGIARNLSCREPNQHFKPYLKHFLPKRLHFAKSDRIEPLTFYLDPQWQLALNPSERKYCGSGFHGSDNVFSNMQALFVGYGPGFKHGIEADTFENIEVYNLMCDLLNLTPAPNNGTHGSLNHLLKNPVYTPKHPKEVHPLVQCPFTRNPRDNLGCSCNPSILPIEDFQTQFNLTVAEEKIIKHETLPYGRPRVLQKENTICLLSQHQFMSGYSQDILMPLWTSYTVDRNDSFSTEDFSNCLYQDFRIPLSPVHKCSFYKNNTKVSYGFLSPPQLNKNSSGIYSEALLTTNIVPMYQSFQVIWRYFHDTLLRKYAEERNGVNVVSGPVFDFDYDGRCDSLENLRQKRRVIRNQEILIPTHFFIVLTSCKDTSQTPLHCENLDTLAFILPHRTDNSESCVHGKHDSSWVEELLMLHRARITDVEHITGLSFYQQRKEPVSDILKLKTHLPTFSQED

[2] = molecular target: T1, human ENPP1, full length, over-expressed on HEK cells (human); assay: flow cytometry (mean fluorescence intensity) on HEK cells over-expressing full length human ENPP1

binding [1]: binds | binding [2]: binds
B1: 12-J-4 ENPP1 monoclonal antibody (antibody, V domains shown)
VH: EVMLVESGGGLVKPGGSLKLSCVASGFTFSSYTMSWVRQTPEKRLEWVATISGGGGNTYYPDSVKGRFTISRDNAKNTLYLQMSSLRSEDTALYYCARRHYGSSPYAMDYWGQGTSVTVSS
VL: DIQMTQTTSSLSASLGDRVTISCRASQDISNYLNWYQQKPDGTVKLLIYHKTRLHSGVPSRFSGSGSGTDYSLTISNLEQEDIATYFCQQGNMLPWTFGGGTKLEIK
notes: The antibody is a recombinant IgG1kappa made in a CHO cell line, from a hybridoma raised against human recombinant ENPP1; Heavy chain about 48 kD, light chain about 24 kD; also called ENPP1 mAb; ENPP1mAb
